From patent publication US7951775B2, “Methods and pharmaceutical compositions for GnRH-I and GnRH-II modulation of T-cell activity, adhesion, migration and extravasation” (priority 2001, dated 2011)
Some entries share one result that the patent states for a list of compounds.

B1: GnRH-II: unique ten amino acid long neuropeptide, 70% homologous in peptide structure to GnRH-I, encoded by its own gene (peptide)
peptide: QHWSHGWYPGGKRALSSAQDPQNALRPPGRALDTAAGSPVQTAHGLPSDALAPLDDSMPWEGRTTAQWSLHRKRHLARTLLTAAREPRPAPPSSNKV

Key:
Format in all cases: cell-based
normal human T-cells [1] = assay: Quantitative RT-PCR of 67 kDa laminin receptor mRNA in T-cells
T-cell population = assay: Assay of sensitivity of T-cell population to GnRH-I or GnRH-II receptor regulators; settings: stated as demonstrated in Examples 5-8
normal human T-cells [2] = assay: Double immunofluorescence staining (FACS) for surface 67 kDa laminin receptor and TCR; settings: freshly isolated T-cells from different human donors
Experimental: Normal human T-cells, isolated from fresh peripheral blood lymphocytes, or EL-4 T-lymphocyte cells were subjected to double immunofluorescence staining, using a mouse monoclonal anti-67 kDa LR antibody (100 μl of 1:20 dilution per 1×10^6 cells/tube; 30 minutes on ice), or normal mouse sera for control. The cells were then stained with an FITC-conjugated goat anti-mouse IgG (100 μl of 1:100 dilution), and PE-conjugated mouse anti-human TCR αβ mAb (2 μl of stock). Cells that were stained only with the second and third antibodies served as additional negative controls. Fluorescence profiles were recorded in a FACSORT. To determine whether GnRH-II and GnRH-I trigger not only the gene transcription but also the surface expression of the 67 kDa LR, normal human T-cells were treated with either GnRH-II or GnRH-I for 18-66 h and subjected to double immunofluorescence staining using a monoclonal antibody (mAb) that is specific for the 67 kDa LR, and a phycoerythrin (PE)-conjugated anti-TCRαβ mAb (to confirm the T-cell origin of the cells). FIGS. 2A-2C show the staining for the untreated, GnRH-I treated and GnRH-II treated T-cells, respectively. The FACS profiles can be interpreted by division according to four categories: 1. Negative staining for both mAbs (double negative, lower left quadrant); 2. Single positive staining only with the anti-LR mAb (lower right quadrant), 3. […]

Molecule	time required to significantly elevate the LR mRNA level (normal human T-cells [1])	physiologically active concentrations (T-cell population)	magnitude of elevation of laminin receptor expression level in different experiments (different donors) (normal human T-cells [2])
pGlu-His-Trp-Ser-Tyr-Gly-Leu-Arg-Pro-Gly-NH2 [GnRH-I]	12 to 24 h	1-1000 nM	6-40%
B1	12 to 24 h	1-1000 nM	6-40%
